PubChem BioAssay AID1671195 | Yale University | 2021

Aim: 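Regulators of LDL receptor activity judged by labelled LDL uptake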 (primary screen)
System: human Huh7 hepatoma cells
Reagents: siRNA pool against human genes, 18 nM
Timing: about 2 to 2.5 days of knockdown, then 8 h LDL uptake
Conditions: DiI-labelled LDL at 30 µg/ml for 8 h, in lipoprotein-deficient serum medium
Measured: 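Fluorescent LDL signal imaged in cells, scaled to the plate median, robust z-score for each replicate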
Scale: robust z-score: higher = more LDL uptake after knockdown
Call rule: 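a gene counts as active if at least two replicate z-scores exceed ±2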
Shown is one part, drawn at random, of about 22,000 reagents. About 1,510 of all reagents (6.9%) were called active. 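Active includes knockdowns raising or lowering LDL uptake; positive z-scores mean more uptake, negative mean less.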

gene	robust z-score, replicate 1	robust z-score, replicate 2	robust z-score, replicate 3	Call
ARSL	5.09	4.47	3.83	active
ARTN	2.41	-1.13	-0.0975	inactive
PLCL1	-0.118	0.559	0.301	inactive
LOC442392 (retired record)	-0.626	-0.484	-0.543	inactive
OR10H4	3.18	1.34	1.65	inactive
LINGO4	0.946	1.16	0.996	inactive
DMAC2	0.564	0.00297	1.47	inactive
DMRT1	-0.105	0.113	-0.147	inactive
EIF1AY	-0.0289	0.101	0.571	inactive
MED8	0.0549	-0.32	0.0423	inactive
LOC286478 (retired record)	3.12	2.88	3.55	active
TARBP1	1.08	1.6	1.67	inactive
LOC441375 (retired record)	-1.09	-1.43	-1.4	inactive
LOC729897	1.96	0.616	1.44	inactive
CTBP2	-1.74	-1.06	-1.91	inactive
ODAM	0.862	1.56	-0.335	inactive
ZBBX	0.0554	-0.68	-0.433	inactive
LINC01181	-2.47	-2.39	-2.53	active
CST5	-1.65	-1.97	-1.75	inactive
MSN	1.26	1.47	1.56	inactive
CDS1	-0.248	-0.901	-0.45	inactive
CEACAM5	-1.66	-1.63	-0.0103	inactive
OXR1	0.196	-0.405	1.33	inactive
PXMP2	0.846	0.499	0.617	inactive
UPP2	-2.42	-2.58	-2.27	active
ZNF526	-0.616	0.31	-0.353	inactive
NOD1	0.361	0.244	0.285	inactive
S100A8	-0.313	-0.296	-0.816	inactive
CRYZL1	-0.96	-0.783	-1.12	inactive
RBM10	-0.755	0.358	-1.11	inactive
SLCO5A1	-0.572	-1.54	-0.926	inactive
LOC442091 (retired record)	-1.06	-0.485	-1.05	inactive
KRT37	-1.77	-0.529	-1.01	inactive
NOTCH1	-0.443	0.397	-0.0763	inactive
RALGAPA2	-0.188	0.0144	0.464	inactive
CIBAR2	1.57	1.3	1.52	inactive
LOC441463 (retired record)	1.08	0.242	0.307	inactive
LOC284409 (retired record)	0.449	0.669	1.01	inactive
LOC390898 (retired record)	-0.354	0.123	-0.0442	inactive
QKI	0.17	0.665	0.413	inactive
SYK	-0.964	-1.37	-0.627	inactive
FLRT1	1.47	0.147	0.643	inactive
LOC440949 (retired record)	-1.22	-1.03	-1.35	inactive
LVRN	-1.26	-1.11	-0.757	inactive
RIF1	-0.102	0.448	1.51	inactive
GUCY1A2	1.73	0.293	0.806	inactive
CCDC144A	-0.36	-1	-1.79	inactive
LINC02874	1.67	2.13	1.74	inactive
CILP	-0.683	-0.918	-0.663	inactive
NPAP1	1.76	0.333	2.28	inactive
WDR5B	-0.857	-1.77	5.44	inactive
CCDC177	0.434	0.692	1.62	inactive
SLC2A10	0.275	0.402	0.387	inactive
ZNF583	1.19	0.879	1.39	inactive
URI1	-0.328	-0.766	0.136	inactive
BAIAP2-DT	-2	-1.59	-1.8	inactive
PPIAP55	-0.573	-0.256	-0.252	inactive
HNRNPLL	-0.616	-0.973	-0.996	inactive
NTMT2	-0.163	1.13	0.466	inactive
CACNG5	-0.207	-0.585	0.0345	inactive
SLC46A2	-1.42	-1.86	-1.57	inactive
IMPDH1P6	-0.299	-0.106	0.134	inactive
LOC388193 (retired record)	0.645	0.523	0.475	inactive
CFAP90	1.37	0.75	1.22	inactive
SNX30	-1.57	-1.95	-1.74	inactive
LINC01904	0.564	0.253	0.147	inactive
LOC441504 (retired record)	-0.209	0.187	-0.0482	inactive
LOC441092 (retired record)	-0.189	-0.692	-0.4	inactive
ZSCAN9	-1.03	-0.584	-0.00433	inactive
STEEP1	-0.24	-0.568	-0.228	inactive
UGGT1	0.186	0.747	0.654	inactive
MKNK1	0.0602	-0.331	-0.834	inactive
AZIN2	-1.33	-0.279	-0.964	inactive
TMPRSS7	-0.293	0.276	-0.652	inactive
PSMB7	0.317	0.162	-0.0931	inactive
HNRNPAB	-0.291	-0.811	-1.11	inactive
NIPSNAP3A	-0.445	0.661	-0.821	inactive
ZNF485	-1.21	-1.05	-1.13	inactive
WWOX	-0.0689	-0.119	0.328	inactive
HSF4	-0.957	-0.643	-0.747	inactive
GSPT1	-0.511	-0.572	-0.472	inactive
ZNF835	-1.51	-1.54	-1.49	inactive
NAP1L3	0.786	0.548	-0.0874	inactive
DLEU7	-0.182	-0.824	-0.489	inactive
NAT14	0.583	0.833	0.682	inactive
RAB42	-0.0408	1.18	0.662	inactive
C4orf17	-1.08	-1.34	-1.13	inactive

Called active (from the list above):
gene	robust z-score, replicate 1	robust z-score, replicate 2	robust z-score, replicate 3	Call
ARSL	5.09	4.47	3.83	active
LOC286478 (retired record)	3.12	2.88	3.55	active
LINC01181	-2.47	-2.39	-2.53	active
UPP2	-2.42	-2.58	-2.27	active
